Assay results: publication PMC12893965
Results are given in words; binding and its absence hold for the method and conditions named. Binding seen in cells or lysates may run through a third protein. Some binding calls cover weakened binding; strength is not graded here.

Sequences of proteins named here, by UniProt entry; tags and fusion partners are left off. Residues count along the entry.
UniProt Q9QUK6, residues 26-835: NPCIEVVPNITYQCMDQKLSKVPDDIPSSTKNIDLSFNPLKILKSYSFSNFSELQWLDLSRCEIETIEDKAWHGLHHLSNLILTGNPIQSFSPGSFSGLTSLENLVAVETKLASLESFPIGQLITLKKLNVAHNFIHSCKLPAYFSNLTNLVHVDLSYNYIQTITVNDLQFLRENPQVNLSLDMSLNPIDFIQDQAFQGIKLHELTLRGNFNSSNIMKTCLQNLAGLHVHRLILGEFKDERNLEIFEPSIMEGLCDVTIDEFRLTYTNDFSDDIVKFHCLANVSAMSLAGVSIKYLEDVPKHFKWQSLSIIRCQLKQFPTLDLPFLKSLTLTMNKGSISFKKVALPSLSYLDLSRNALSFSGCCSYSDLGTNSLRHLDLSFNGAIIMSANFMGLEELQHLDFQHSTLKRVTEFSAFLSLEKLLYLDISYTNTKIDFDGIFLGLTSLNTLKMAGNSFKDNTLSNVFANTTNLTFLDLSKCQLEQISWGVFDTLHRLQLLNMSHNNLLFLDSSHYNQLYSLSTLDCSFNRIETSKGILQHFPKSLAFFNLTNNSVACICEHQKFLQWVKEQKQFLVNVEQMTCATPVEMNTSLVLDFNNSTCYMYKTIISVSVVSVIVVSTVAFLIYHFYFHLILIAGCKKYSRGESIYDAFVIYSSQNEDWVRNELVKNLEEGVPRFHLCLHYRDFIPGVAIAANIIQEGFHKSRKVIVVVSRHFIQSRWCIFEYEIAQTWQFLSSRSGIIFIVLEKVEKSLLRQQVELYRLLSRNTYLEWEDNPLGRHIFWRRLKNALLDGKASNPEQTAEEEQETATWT

Target: Toll-like receptor 4 (TLR4) (mouse (endogenous in ST36 acupoint tissue of C57BL/6J mice)) (UniProt Q9QUK6)
Experiment: co-IP; ST36 acupoint tissue lysate (1 mg protein) incubated with 2 ug mouse monoclonal anti-TLR4 antibody or mouse IgG isotype control, 1 hour at room temperature, then Protein A/G magnetic beads at 4°C overnight; washed three times with lysis buffer; WB for TLR4 and MD2

binding: binds
B1: Myeloid differentiation protein 2 (MD2) (protein, UniProt Q9JHF9 19-160)
chain: EKQQWFCNSSDAIISYSYCDHLKFPISISSEPCIRLRGTNGFVHVEFIPRGNLKYLYFNLFISVNSIELPKRKEVLCHGHDDDYSFCRALKGETVNTSIPFSFEGILFPKGHYRCVAEAIAGDTEEKLFCLNFTIIHRRDVN
